# Assay results taken from patent publication US20250120971A1, “NOVEL DRUG TREATMENT OF COGNITIVE IMPAIRMENTS ASSOCIATED WITH SCHIZOPHRENIA” (FLORIDA ATLANTIC UNIVERSITY BOARD OF TRUSTEES, priority 2021, published 2025).
# Experiments:
# [1] = system: KET mouse model of psychosis or schizophrenia-like behavior; assay: Object recognition memory task after systemic (IP) SK channel activator; format: in vivo, mouse (male C57BL/6J); conditions: SAL and KET mice; CyPPA 15.0 mg/kg IP; exploration time, distance traveled, velocity
# Procedure: SK Drug Administration. To test the effect of the SK2 specific activator, CyPPA on long-term memory for objects, two KET groups and two SAL groups of male C57BL/6J mice were randomly assigned to receive either VEH or CyPPA (15.0 mg/kg) IP 30 min prior to the sample session of an object recognition memory task. Separate groups received CyPPA (7.5 mg/kg) IP or VEH 30 min prior to the sample session.
# Arena Habituation. Mice were habituated to the arena prior to testing recognition memory. Thirty minutes prior to each arena habituation (AH) session, each mouse was restrained gently and momentarily, given a mock IP injection with a 26-gauge needle, and then placed into an empty polycarbonate cage. […] Afterwards, each mouse was returned to the polycarbonate cage and then returned to its home cage. Activity was recorded and automatically scored using Noldus Ethovision XT (version 7.0). Distance traveled was defined as the sum of recorded movement of the center point of the mouse in cm over the duration of the trial. […]
# Sample Session. […] Sample session behavior was video tracked via Ethovision XT and recordings were analyzed off-line to determine object exploration times for each mouse. […]
# Statistical Analysis. Object exploration was determined for each mouse based on the manual scoring of behavior from the recorded video files of the sample and test sessions. […]
# [2] = system: KET mouse model of psychosis; assay: Object recognition memory task after intrahippocampal (CA1) microinfusion; format: in vivo; conditions: KET mice; CyPPA 1 μg/μl, 0.35 μl/side bilateral intra-CA1
smiles,measurement,setting,value
Cc1cc(NC2CCCCC2)nc(-n2nc(C)cc2C)n1 [CyPPA],attention and motivation to explore the objects during the sample session,[1],not affected
same,"total object exploration time, sample session (Mdn)",[2],62.190 s
